The target of the assay is T1, Elp1-c-Myc (S. cerevisiae) (UniProt Q06706).
T1 sequence: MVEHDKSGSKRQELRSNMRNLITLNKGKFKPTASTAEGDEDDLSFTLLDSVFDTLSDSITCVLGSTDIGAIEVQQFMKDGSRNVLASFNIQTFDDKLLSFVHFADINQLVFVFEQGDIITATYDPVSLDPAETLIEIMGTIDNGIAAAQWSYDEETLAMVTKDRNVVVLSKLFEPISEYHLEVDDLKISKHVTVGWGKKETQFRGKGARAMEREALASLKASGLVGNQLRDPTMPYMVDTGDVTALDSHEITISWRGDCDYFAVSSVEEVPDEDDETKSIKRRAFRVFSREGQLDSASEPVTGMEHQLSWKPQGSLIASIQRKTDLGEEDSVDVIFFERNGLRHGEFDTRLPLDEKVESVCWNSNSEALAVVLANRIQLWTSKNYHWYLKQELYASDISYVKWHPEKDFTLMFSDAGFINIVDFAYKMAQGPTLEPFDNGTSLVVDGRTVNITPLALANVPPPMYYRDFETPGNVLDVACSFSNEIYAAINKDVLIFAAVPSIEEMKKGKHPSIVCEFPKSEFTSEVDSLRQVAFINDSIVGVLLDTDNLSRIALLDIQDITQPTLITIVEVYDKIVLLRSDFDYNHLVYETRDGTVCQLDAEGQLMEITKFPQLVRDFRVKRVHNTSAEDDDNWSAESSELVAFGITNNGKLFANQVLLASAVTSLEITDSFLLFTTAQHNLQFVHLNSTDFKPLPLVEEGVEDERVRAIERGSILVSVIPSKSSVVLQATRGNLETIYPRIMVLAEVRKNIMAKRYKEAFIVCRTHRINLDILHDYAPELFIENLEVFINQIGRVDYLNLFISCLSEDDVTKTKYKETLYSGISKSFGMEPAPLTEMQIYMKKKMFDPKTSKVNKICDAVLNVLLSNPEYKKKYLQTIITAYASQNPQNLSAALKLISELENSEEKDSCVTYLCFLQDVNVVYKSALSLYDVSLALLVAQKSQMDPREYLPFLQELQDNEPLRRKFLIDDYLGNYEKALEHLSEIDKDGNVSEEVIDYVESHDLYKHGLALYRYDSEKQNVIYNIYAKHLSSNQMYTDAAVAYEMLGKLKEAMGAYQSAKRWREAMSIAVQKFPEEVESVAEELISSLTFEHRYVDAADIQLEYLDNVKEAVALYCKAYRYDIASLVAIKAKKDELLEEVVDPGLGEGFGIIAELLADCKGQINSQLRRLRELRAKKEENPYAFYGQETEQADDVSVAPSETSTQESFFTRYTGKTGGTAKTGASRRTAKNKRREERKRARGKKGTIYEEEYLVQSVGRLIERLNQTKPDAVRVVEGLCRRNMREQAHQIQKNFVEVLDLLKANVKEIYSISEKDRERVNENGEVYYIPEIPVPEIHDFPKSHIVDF
In words: co-IP; Elp1-c-Myc immobilised on antibody-coupled Dynabeads; 8 mg total yeast protein in B60 buffer (50 mM HEPES-KOH pH 7.3, 60 mM KOAc), 4°C overnight; Kti12-HA detected by Western blot.

Amino acid sequences for entries named in this document (tags omitted). A change or cut given only in a name is not applied to a line headed by its entry.
UniProt P34253: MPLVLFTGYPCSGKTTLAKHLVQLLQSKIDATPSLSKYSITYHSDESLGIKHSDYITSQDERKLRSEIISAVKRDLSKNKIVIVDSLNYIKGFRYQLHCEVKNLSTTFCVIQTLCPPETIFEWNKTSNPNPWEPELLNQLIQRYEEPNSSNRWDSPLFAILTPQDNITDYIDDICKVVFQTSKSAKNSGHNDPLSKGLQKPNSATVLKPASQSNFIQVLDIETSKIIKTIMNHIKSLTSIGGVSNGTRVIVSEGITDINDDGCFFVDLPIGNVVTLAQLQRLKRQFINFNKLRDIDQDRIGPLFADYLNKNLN

These are yes or no findings as the source states them, for the method shown. Binding seen in cells or lysates may run through a third protein. A result given as binding can be weak or reduced; the word gives no strength. Tags and fused reporters may be left off the sequences shown.

In the case of Kti12-HA R291A (from UniProt P34253), the binding result is given as “binds”.

The record behind these values is paper PMC11995267.
